Laboratory results reported in patent US8182809.
Results are given in words; binding and its absence hold for the method and conditions named. For some assays here: In cells and extracts the contact can be indirect. Some results given as binding are weak or reduced against the parent protein; the word gives no strength. For some assays here: Tags and fused reporters may be left off the sequences shown.

Experiments:
[1] = biological target: T1, full-length human MICB (allele 0101) expressed on TRAMP-C2 cells (human) (UniProt Q29980); test: flow cytometry (MFI) on TC2-MICB cells
T1 sequence: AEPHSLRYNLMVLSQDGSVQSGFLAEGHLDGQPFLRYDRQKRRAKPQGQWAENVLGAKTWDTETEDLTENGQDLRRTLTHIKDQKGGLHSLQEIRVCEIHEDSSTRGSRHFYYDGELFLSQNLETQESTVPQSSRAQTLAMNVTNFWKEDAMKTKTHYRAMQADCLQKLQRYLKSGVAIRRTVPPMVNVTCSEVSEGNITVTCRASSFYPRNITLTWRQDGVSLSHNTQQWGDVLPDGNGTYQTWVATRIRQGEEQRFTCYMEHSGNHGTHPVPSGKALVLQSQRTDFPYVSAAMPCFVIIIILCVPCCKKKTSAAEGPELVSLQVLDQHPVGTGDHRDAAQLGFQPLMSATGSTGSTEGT

[2] = biological target: T1, full-length human MICB (allele 0101) expressed on TRAMP-C2 cells (human); test: flow cytometry on TC2-MICB cells, 10 µg/ml smNKG2D-Fc, PE anti-human IgG
[3] = biological target: T2, mouse NKG2D receptor on NK cells of SCID mice (mouse) (UniProt O54709); test: ex vivo competitive binding assay, NK cells of mice bearing TC2-MICB tumors; competitor rsMICB-FLAG
T2 sequence (looked up): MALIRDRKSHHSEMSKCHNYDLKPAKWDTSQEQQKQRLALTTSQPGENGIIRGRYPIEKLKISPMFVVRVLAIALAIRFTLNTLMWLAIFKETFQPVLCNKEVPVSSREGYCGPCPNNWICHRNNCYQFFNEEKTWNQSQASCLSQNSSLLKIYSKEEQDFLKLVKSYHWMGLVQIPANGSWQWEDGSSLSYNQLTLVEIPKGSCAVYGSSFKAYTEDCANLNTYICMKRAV

[4] = biological target: T2, mouse NKG2D receptor on NK cells of SCID mice (mouse); test: ex vivo competitive binding assay on splenic NK cells of tumor-bearing mice; competitor rsMICB-FLAG
[5] = biological target: T3, ERp5 (protein disulphide isomerase, also called P5) co-precipitated from TRAMP-C2 cells (UniProt Q922R8); test: co-immunoprecipitation with mAb 6D4.6 from surface-biotinylated TRAMP-C2 cells, blot with anti-ERp5 ab11432
T3 sequence (looked up): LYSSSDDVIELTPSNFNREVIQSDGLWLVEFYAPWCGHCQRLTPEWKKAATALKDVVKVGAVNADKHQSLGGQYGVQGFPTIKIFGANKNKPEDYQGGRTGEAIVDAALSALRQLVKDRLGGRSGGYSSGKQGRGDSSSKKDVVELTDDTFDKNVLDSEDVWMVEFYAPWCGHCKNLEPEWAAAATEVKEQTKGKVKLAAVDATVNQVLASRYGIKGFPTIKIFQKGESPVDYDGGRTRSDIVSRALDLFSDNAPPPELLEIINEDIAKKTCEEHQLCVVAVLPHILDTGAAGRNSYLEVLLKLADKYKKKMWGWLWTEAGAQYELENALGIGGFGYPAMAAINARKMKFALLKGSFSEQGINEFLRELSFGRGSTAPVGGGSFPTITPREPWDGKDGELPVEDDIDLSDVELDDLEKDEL

B1: fusion protein of recombinant soluble mouse NKG2D and human Fc (smNKG2D-Fc, R&D Systems) (Fc fusion, UniProt O54709 94-232, looked up, not shown: a dimerising Fc or GST)
chain: FQPVLCNKEVPVSSREGYCGPCPNNWICHRNNCYQFFNEEKTWNQSQASCLSQNSSLLKIYSKEEQDFLKLVKSYHWMGLVQIPANGSWQWEDGSSLSYNQLTLVEIPKGSCAVYGSSFKAYTEDCANLNTYICMKRAV
In the case of B1, the binding [1] is reported as “binds” and the binding [2] is reported as “binds”.

B2: soluble MICB resulting from shedding by TC2-MICB tumor cells (ssMICB) (ligand, human, UniProt Q29980 23-299, looked up)
chain: AEPHSLRYNLMVLSQDGSVQSGFLAEGHLDGQPFLRYDRQKRRAKPQGQWAENVLGAKTWDTETEDLTENGQDLRRTLTHIKDQKGGLHSLQEIRVCEIHEDSSTRGSRHFYYDGELFLSQNLETQESTVPQSSRAQTLAMNVTNFWKEDAMKTKTHYRAMQADCLQKLQRYLKSGVAIRRTVPPMVNVTCSEVSEGNITVTCRASSFYPRNITLTWRQDGVSLSHNTQQWGDVLPDGNGTYQTWVATRIRQGEEQRFTCYMEHSGNHGTHPVPSGK
For B2, the binding [3] was “binds” and the binding [4] was “binds”.

B3: wild-type human MICA*01 (wtMICA) expressed on TRAMP-C2 or C1R cells (ligand)
chain: EPHSLRYNLTVLSWDGSVQSGFLTEVHLDGQPFLRCDRQKCRAKPQGQWAEDVLGNKTWDRETRDLTGNGKDLRMTLAHIKDQKEGLHSLQEIRVCEIHEDNSTRSSQHFYYDGELFLSQNLETKEWTMPQSSRAQTLAMNVRNFLKEDAMKTKTHYHAMHADCLQELRRYLKSGVVLRRTVPPMVNVTRSEASEGNITVTCRASGFYPWNITLSWRQDGVSLSHDTQQWGDVLPDGNGTYQTWVATRICQGEEQRFTCYMEHSGNHSTHPVPSGKVLVLQSHWQTFHVSAVAAAAIFVIIIFYVRCCKKKTSAAEGPELVSLQVLDQHPVGTSDHRDATQLGFQPLMSDLGSTGSTEGA
With B3 the binding [5] was “binds”.
